This passage reports AC50 results from PubChem BioAssay AID1487 (National Center for Advancing Translational Sciences (NCATS), 2009).

The assay can be described thus: qHTS Assay for Modulators of Lamin A Splicing. To be noted: HeLa LMNA splicing GFP/RFP minigene ratio, 48 h. An outline of the steps: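 S3 HeLa stable clones carrying a lamin A-EGFP splicing minigene plus DsRed2 were seeded at 600 cells/well in Opti-MEM with 2% FBS, pin-dosed and incubated 48 h at 37°C. Acumen cytometry (488 nm) gave the GFP/RFP total-intensity ratio.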

Where [1] appears, read: measured here: GFP splicing reporter channel.
Where [2] appears, read: measured here: RFP viability control channel.

The other results are listed elsewhere or left out. Shown are side measurements of this screen, not its main read-out; they come without a call. Most of these compounds were active or inconclusive in the main read-out, so they are no random draw. Words in brackets tell the shape of the fitted curve; partial curves, single points and poor fits give uncertain potencies.

For the compound `Nc1n[nH]c2c1C1(CCCC1)Cc1ccccc1-2`, the AC50 (commonly the concentration giving half of the maximal activity seen) under setting [1] was 1.41 µM [rising, partial curve, poor fit].
With `O=C(NC1CCCC1)C(c1ccc(N2CCOCC2)cc1)N(Cc1ccccc1)C(=O)c1ccco1` (stereo not drawn), the AC50 is 12.6 µM [rising, partial curve, poor fit] under setting [1] and 0.891 µM [rising, full curve, poor fit] under setting [2].
For the compound `O=C(c1ccccc1)N1c2nc(-c3ccco3)nn2C2(CCCCC2)[C@@H]2CCCC[C@@H]21`, the AC50 under setting [2] is 5.01 µM [rising, single point].
As for `Cc1cc(C)cc(NC(=O)Cc2noc3ccccc23)c1`, the AC50 under setting [1] was 12.6 µM [falling, single point] and the AC50 under setting [2] is 3.16 µM [rising, partial curve].
On to `O=C(NC1CCCc2ccccc21)c1ccc(Br)cc1` (stereo not drawn), for which, under setting [2], the AC50 is 31.6 µM [rising, single point].
With `CC(NC(=O)c1cccc(S(=O)(=O)N(C)C)c1)c1nc2ccccc2[nH]1` (stereo not drawn), the concentration at half-maximal activity (AC50) is, setting by setting: under setting [1], 0.0398 µM [falling, full curve, poor fit]; under setting [2], 0.708 µM [falling, single point].
For `Cc1ccccc1OCc1ccc(-c2nc(C#N)c(N3CCN(c4cccc(Cl)c4)CC3)o2)o1`, the AC50 under setting [1] is 0.0562 µM [falling, full curve, poor fit].
For `O=C1NC(c2ccccc2)=NC1(NS(=O)(=O)c1ccc(Cl)cc1)C(F)(F)F` (stereo not drawn), the AC50 under setting [2] is 7.94 µM [rising, partial curve].
Regarding `CC(NC(=O)c1ccc(Cn2cc([N+](=O)[O-])cn2)cc1)c1ccccc1` (stereo not drawn), the AC50 under setting [1] is 5.62 µM [rising, single point].
Take `COc1ccc(C(=O)C2CCCN(C(=O)c3n[nH]c4c3CCCC4)C2)cc1OC` (stereo not drawn): under setting [2], the AC50 was 4.47 µM [falling, full curve, poor fit].
Take `COc1ccc(NC(=O)/C(Cl)=C(/Cl)S(=O)(=O)Cc2ccc(C)cc2)cn1`: the AC50 is 3.55 µM [falling, full curve] under setting [1] and 5.62 µM [falling, full curve] under setting [2].
`COc1ccccc1N1CCN(C(=O)C2CCCN(S(=O)(=O)c3ccc4c(c3)CCCN4C(C)=O)C2)CC1` (stereo not drawn): the AC50 under setting [1] was 3.55 µM [falling, full curve, poor fit].
In the case of `COc1ccccc1NC1=CC(=O)CC(c2ccccc2)C1` (stereo not drawn), the AC50 under setting [2] was 12.6 µM [rising, partial curve, poor fit].
On to `COc1cc(/C=C(/C(=O)c2cccs2)c2nc3ccccc3[nH]2)ccc1O`, for which the AC50 is, setting by setting: under setting [1], 5.01 µM [falling, partial curve]; under setting [2], 3.55 µM [falling, full curve, poor fit].
`Cn1nc(CC(=O)Nc2ccc(N3CCN(C(=O)OC(C)(C)C)CC3)cc2)c2ccccc2c1=O`: the AC50 was 0.708 µM [rising, full curve] under setting [1] and 0.891 µM [rising, full curve] under setting [2].
`Cc1ccc2nc(-c3ccccc3)c(CN3CCSCC3)n2c1`: the AC50 under setting [1] is 0.00316 µM [rising, full curve, poor fit].
On to `CC(OC(=O)c1ccc(NS(=O)(=O)c2cccs2)cc1)C(=O)N(C)C1CCCCC1` (stereo not drawn), for which the half-maximal activity concentration (AC50) under setting [2] is 35.5 µM [rising, single point].
As to `COc1cc(/C=N/NC(N)=S)ccc1OCC(=O)N1CCOCC1`, the AC50 reads like this: under setting [1], 0.794 µM [falling, full curve, poor fit]; under setting [2], 0.631 µM [falling, full curve, poor fit].
On to `COc1ccc(N2CCN(C(=O)c3ccc(S(=O)(=O)N4CCOCC4)cc3)CC2)cc1`, for which the AC50 under setting [2] is 14.1 µM [rising, single point].
As for `CC1CC(C)(C)NC(=S)O1` (stereo not drawn), the AC50 under setting [1] was 5.62 µM [falling, single point] and the AC50 under setting [2] was 5.62 µM [falling, single point].
As for `O=C(CCN1CCCC1)Nc1ccccc1`, the AC50 by setting is: under setting [1], 3.55 µM [falling, single point]; under setting [2], 3.16 µM [falling, single point].
Consider `CCOCCCNC(=O)/C(C#N)=C/c1ccc([N+](=O)[O-])o1`, for which the AC50 under setting [2] is 20 µM [rising, single point].
The same measure, in the same setting: then `CCC(Sc1nc(C)cc(C)n1)C(=O)Nc1cc(C)on1` (stereo not drawn), with 0.631 µM [falling, full curve, poor fit].
On to `O=C(COc1ccccc1)c1cn(CC(=O)N2CCCC2)c2ccccc12`, for which the AC50 under setting [1] was 0.0282 µM [falling, full curve, poor fit].
Turning to `CCN(CC)c1ccc(-c2nn3c(-c4n[nH]c5c4CCC5)nnc3s2)cc1`, the AC50 under setting [2] was 0.1 µM [rising, full curve].
As to `CCCCCC(=O)O[C@]1(C(C)=O)CC[C@H]2[C@@H]3CCC4=CC(=O)CC[C@]4(C)[C@H]3CC[C@@]21C`, the AC50 under setting [1] is 15.8 µM [rising, partial curve, poor fit] and the AC50 under setting [2] was 20 µM [rising, partial curve].
Take `CCOc1ccccc1N(CC)C(=O)Nc1cn(C)c(=O)c2ccccc12`: the AC50 runs as follows: under setting [1], 35.5 µM [rising, partial curve, poor fit]; under setting [2], 35.5 µM [rising, partial curve, poor fit].
Take `O=C(CN(c1cccc(C(F)(F)F)c1)S(=O)(=O)c1ccc(Cl)c([N+](=O)[O-])c1)NCc1ccccc1`: the AC50 is 35.5 µM [falling, single point] under setting [1] and 31.6 µM [falling, single point] under setting [2].
`O=C(Nc1nc2ccccc2s1)C1c2ccccc2Oc2ccccc21`: under setting [2], the AC50 is 22.4 µM [rising, single point].
For the compound `CN(C)S(=O)(=O)c1ccc(NC=O)cc1`, the AC50 is 35.5 µM [rising, partial curve, poor fit] under setting [1] and 0.0501 µM [rising, full curve] under setting [2].
As for `Oc1cc2c(cc1O)CN(C(=S)NCCc1ccc(Cl)cc1)CCC2`, the AC50 by setting is: under setting [1], 14.1 µM [falling, single point]; under setting [2], 11.2 µM [falling, partial curve].
Regarding `O=C(Nc1ccccn1)C1CCN(S(=O)(=O)c2cccs2)CC1`, the AC50 under setting [2] is 35.5 µM [rising, single point].
On the same count and under the same terms, then `CC(=O)/C=C1/C(=O)Nc2ccccc21`, with 35.5 µM [rising, single point].
In the case of `CNC(=S)N/N=C1\C(=O)c2cccc3cccc1c23`, the AC50 under setting [1] was 17.8 µM [falling, single point].
